We go through 69 compounds from the supplement of paper PMC7830784.

Structures are written as SMILES. Where “and” joins values, the source holds several entries; their conditions need not be identical. Equal entries are not always repeated. Structures can show the parent of a compound that is named as a salt. The list shows a part of the results. Repeats in this data set agree poorly, so a single value says little. Positions of bridges follow the written chain, without caps; N, C: chain ends. Non-standard residues stand in square brackets, D forms with d. Residues, ends and D or L forms follow the SMILES beside them. *: point of attachment. Ileψ(thiazoline)Cys = CC[C@H](C)[C@H](N)C1=N[C@H](C(=O)*)CS1; dOrn = NCCC[C@@H](N)C(=O)O

For this experiment, the system named is Brugia pahangi adult female. Nature of the experiment: motility inhibition on day 3 relative to DMSO vehicle; higher = more active. Conditions: 10 µM; 3 days.
As for `CNC[C@H](O)c1ccc(O)c(O)c1` [adrenaline bitartrate], the “motility inhibition on day 3” value turned out to be 1.86%.
In the case of `CN1CCN(CCCN2c3ccccc3Sc3ccc(C(F)(F)F)cc32)CC1` [Trifluoperazine dihydrochloride] it was 5.57%.
To `CC(S)C(=O)NCC(=O)O` (centres undefined) [tiopronin] belongs 0.035%.
To `COc1ccc(OC)c(C(O)CNC(=O)CN)c1` (centres undefined) [midodrine hydrochloride] belongs less than 0%; to `CC(=O)NS(=O)(=O)c1ccc(NC(=O)c2ccccc2C(=O)O)cc1` [phthalylsulfacetamide], 5.81%.
`CC[C@H](C)[C@H](N)C1=N[C@H](C(=O)N[C@@H](CC(C)C)C(=O)N[C@H](CCC(=O)O)C(=O)N[C@H](C(=O)N[C@H]2CCCCNC(=O)[C@H](CC(N)=O)NC(=O)[C@@H](CC(=O)O)NC(=O)[C@H](Cc3cnc[nH]3)NC(=O)[C@@H](Cc3ccccc3)NC(=O)[C@H]([C@@H](C)CC)NC(=O)[C@@H](CCCN)NC2=O)[C@@H](C)CC)CS1` [bacitracin] ({Ileψ(thiazoline)Cys}-L[dE]IK[dOrn]I[dF]H[dD]N; lactam 4-C): the “motility inhibition on day 3” value was 10.4%.
`OC(CNCC(O)C1CCc2cc(F)ccc2O1)C1CCc2cc(F)ccc2O1` (centres undefined) [nebivolol hydrochloride]: the “motility inhibition on day 3” value worked out at 5.1%.
In the case of `Oc1c(I)cc(Cl)c2cccnc12` [clioquinol] it was 78.9%; in that of `CC(C)(C#N)c1cc(Cn2cncn2)cc(C(C)(C)C#N)c1` [anastrozole], less than 0%; in that of `CN(C)CCOC(C)(c1ccccc1)c1ccccn1` (centres undefined) [doxylamine succinate], less than 0%.
In the case of `C=CCNC(N)=S` [allylthiourea], the “motility inhibition on day 3” value was 36%.
`CC(=O)c1ccc2c(c1)N(CCCN(C)C)c1ccccc1S2` [acepromazine maleate]: the “motility inhibition on day 3” value is 9.55%.
In the case of `CN(C(=O)C(Cl)Cl)c1ccc(OC(=O)c2ccco2)cc1` [diloxanide furoate], the “motility inhibition on day 3” value came out at 6.09%.
To `COc1cc(/C=C/C(N)=O)cc(OC)c1OC` [cintriamide] belongs 37.1%.
Consider `Nc1ccn([C@H]2CC[C@@H](CO)O2)c(=O)n1` [zalcitabine], for which the “motility inhibition on day 3” value is 0.742%.
In the case of `COc1ccc2c(c1)c(CC(=O)O)c(C)n2C(=O)c1ccc(Cl)cc1` [Indomethacin] it was 36.6%; in that of `CN1CCC(=C2c3ccccc3CCc3cccnc32)CC1` [azatadine maleate], less than 0%.
Turning to `Nc1nc2ccc(OC(F)(F)F)cc2s1` [Riluzole], the “motility inhibition on day 3” value came out at 7.54%.
Turning to `OC[C@H]1O[C@H](O[C@]2(CCl)O[C@H](CCl)[C@@H](O)[C@@H]2O)[C@H](O)[C@@H](O)[C@H]1Cl` [sucralose], the “motility inhibition on day 3” value is less than 0%.
Turning to `O=C(C1CCCCC1)N1CC(=O)N2CCc3ccccc3C2C1` (centres undefined) [praziquantel], the “motility inhibition on day 3” value came to 1.7%.
In the case of `CCOC(=O)O[C@]1(C(=O)COC(=O)CC)CC[C@H]2[C@@H]3CCC4=CC(=O)C=C[C@]4(C)[C@H]3[C@@H](O)C[C@@]21C` [prednicarbate] it was 28.1%.
Consider `COc1ccc2c(c1OC)C(=O)O[C@@H]2[C@H]1c2c(cc3c(c2OC)OCO3)CCN1C` [noscapine hydrochloride], for which the “motility inhibition on day 3” value was determined as 17.3%.
For `CC(=O)NCCCS(=O)(=O)O` [acamprosate calcium], the “motility inhibition on day 3” value was 1.72%.
In the case of `O=C(O)c1cc(/N=N/c2ccc(O)c(C(=O)O)c2)ccc1O` [olsalazine sodium] it was 53.2%; in that of `CC(C)(C)NCC(O)COc1cccc2c1CCC(=O)N2` (centres undefined) [carteolol hydrochloride], 14.9%; in that of `C=C1c2c(Cl)ccc(O)c2C(=O)C2=C(O)[C@]3(O)C(=O)C(C(N)=O)=C(O)[C@@H](N(C)C)[C@@H]3[C@@H](O)[C@H]12.O=C(O)c1cc(S(=O)(=O)O)ccc1O` [meclocycline sulfosalicylate], 7.87%.
In the case of `CN(C)C(=O)C(CCN1CCC(O)(c2ccc(Cl)cc2)CC1)(c1ccccc1)c1ccccc1` [Loperamide hydrochloride] it was 26.5%; in that of `Nc1nc2[nH]cnc2c(=S)[nH]1` [thioguanine], 2.75%.
In the case of `CC(=O)C1C(=O)C=C(C)OC1=O` (centres undefined) [dehydroacetic acid] it was less than 0%; in that of `O=C1c2c(O)cccc2C([C@@H]2O[C@H](CO)[C@@H](O)[C@H](O)[C@H]2O)c2cc(CO)cc(O)c21` (some centres undefined) [aloin], 25.2%.
Take `CC(C(=O)O)c1ccc2c(c1)[nH]c1ccc(Cl)cc12` (centres undefined) [carprofen]: the “motility inhibition on day 3” value is less than 0%.
To `Cc1cccc(C)c1NC(=O)C(C)N` (centres undefined) belongs 6.52%; to `CO/N=C(\C(=O)N[C@@H]1C(=O)N2C(C(=O)O)=C(CSc3nnnn3C)CS[C@H]12)c1csc(N)n1` [cefmenoxime hydrochloride], 26.9%; to `C[C@H]1O[C@@H](O[C@H]2[C@@H](O)C[C@H](O[C@H]3[C@@H](O)C[C@H](O[C@H]4CC[C@@]5(C)[C@H](CC[C@@H]6[C@@H]5C[C@@H](O)[C@]5(C)[C@@H](C7=CC(=O)OC7)CC[C@]65O)C4)O[C@@H]3C)O[C@@H]2C)C[C@H](O)[C@@H]1O` [digoxin], 13.8%.
To `O=C(OCC(O)CO)c1ccccc1Nc1ccnc2cc(Cl)ccc12` (centres undefined) [glafenine] belongs less than 0%; to `CC(C(=O)O)c1ccc(-c2ccccc2)c(F)c1` (centres undefined) [flurbiprofen], 6.81%; to `Cc1c(OCC(F)(F)F)ccnc1C[S@@+]([O-])c1nc2ccccc2[nH]1` [dexlansoprazole], 16.5%.
To `Cc1cccc(C)c1OCC(C)N` (centres undefined) [mexiletine hydrochloride] belongs 19.9%; to `Cc1cc(=O)[nH]c(=S)[nH]1` [methylthiouracil], 61.6%; to `CC(=O)[C@H]1CC[C@H]2[C@@H]3C=CC4=CC(=O)CC[C@@]4(C)[C@@H]3CC[C@]12C` [dydrogesterone], less than 0%.
Consider `NC[C@@H]1O[C@H](O[C@H]2[C@@H](O)[C@H](O[C@@H]3[C@@H](O)[C@H](N)C[C@H](N)[C@H]3O[C@H]3O[C@H](CO)[C@@H](O)[C@H](O)[C@H]3N)O[C@@H]2CO)[C@H](N)[C@@H](O)[C@@H]1O` [paromomycin sulfate], for which the “motility inhibition on day 3” value was 2.36%.
In the case of `CC[C@]1(O)C[C@H]2CN(CCc3c([nH]c4ccccc34)[C@@](C(=O)OC)(c3cc4c(cc3OC)N(C=O)[C@H]3[C@@](O)(C(=O)OC)[C@H](OC(C)=O)[C@]5(CC)C=CCN6CC[C@]43[C@@H]65)C2)C1` [vincristine sulfate] it was 1.32%; in that of `COc1ccccc1OCC(O)CO` (centres undefined) [guaifenesin], 23.3%.
In the case of `Cc1c(N(C)C)c(=O)n(-c2ccccc2)n1C` [aminopyrine] it was 16.9%; in that of `Oc1c(Cl)cc(Cl)c(Cl)c1Cc1c(O)c(Cl)cc(Cl)c1Cl` [hexachlorophene], 95.1%; in that of `CCOC(=O)C1=C(COCCN)NC(C)=C(C(=O)OC)C1c1ccccc1Cl` (centres undefined) [amlodipine besylate], 7.58% and 16.3%.
`CCN(CC)CCNC(=O)c1c(C)[nH]c(/C=C2\C(=O)Nc3ccc(F)cc32)c1C` [sunitinib malate]: the “motility inhibition on day 3” value worked out at 6.76%.
To `COc1ccc(/C=C/C(=O)Nc2ccccc2C(=O)O)cc1OC` [tranilast] belongs 9.41%.
In the case of `C[n+]1c2cc(N)ccc2cc2ccc(N)cc21` [acriflavinium hydrochloride] it was 92.6%.
To `CCC[C@@H]1C[C@@H](C(=O)N[C@@H]([C@H]2O[C@H](SC)[C@H](O)[C@@H](O)[C@H]2O)[C@H](C)Cl)N(C)C1` [clindamycin hydrochloride] belongs less than 0%.
For the compound `O=C(N[C@H](CO)[C@H](O)c1ccc([N+](=O)[O-])cc1)C(Cl)Cl` [chloramphenicol], the “motility inhibition on day 3” value was 1.51%.
To `O=C(O)CCNC(=O)c1ccccc1` [betamipron] belongs less than 0%; to `Cn1cnc2c1c(=O)[nH]c(=O)n2C` [Theobromine], 26.5%; to `CC1=NN(c2ccccc2)C(=O)C1` [3-methyl-1-phenyl-2-pyrazolin-5-one (mci-186)], 1.86%.
To `CCN(CC)CCNC(=O)c1cc(Cl)c(N)cc1OC` [Metoclopramide hydrochloride] belongs less than 0%; to `CCOc1ccc2ccccc2c1C(=O)N[C@@H]1C(=O)N2[C@@H]1SC(C)(C)[C@@H]2C(=O)O` [nafcillin sodium], 1.02%.
In the case of `CC(C)(CO)C(O)C(=O)NCCCO` (stereo not drawn) [panthenol (dl)] it was 3.47%.
Take `OCc1cccnc1` [nicotinyl alcohol tartrate]: the “motility inhibition on day 3” value came out at 16%.
To `COc1ccccc1Oc1c(NS(=O)(=O)c2ccc(C(C)(C)C)cc2)nc(-c2ncccn2)nc1OCCO` [Bosentan] belongs 48.8%; to `CN(C)CCC=C1c2ccccc2COc2ccccc21` [Doxepin hydrochloride], 15.7%; to `CN(C)CCC=C1c2ccccc2COc2ccccc21` [doxepin hydrochloride], 5.92%.
With `CN1CCC[C@@H]1Cc1c[nH]c2ccc(CCS(=O)(=O)c3ccccc3)cc12` [eletriptan hydrobromide], the “motility inhibition on day 3” value came to 2.64%.
To `CC(C)[N+](C)(CCOC(=O)C1c2ccccc2Oc2ccccc21)C(C)C` [propantheline bromide] belongs 3.84%.
In the case of `CC(C)Nc1cccnc1N1CCN(C(=O)c2cc3cc(NS(C)(=O)=O)ccc3[nH]2)CC1` [Delavirdine mesylate] it was 12.7%; in that of `Cc1onc(-c2ccccc2Cl)c1C(=O)N[C@@H]1C(=O)N2[C@@H]1SC(C)(C)[C@@H]2C(=O)O` [cloxacillin sodium], less than 0%.
Regarding `C#Cc1cccc(Nc2ncnc3cc(OCCOC)c(OCCOC)cc23)c1` [Erlotinib], the “motility inhibition on day 3” value came out at 4.41%.
To `NS(=O)(=O)c1cc2c(cc1Cl)NC(C(Cl)Cl)NS2(=O)=O` (centres undefined) [trichlormethiazide] belongs 24.3%.
As for `CN[C@@H]1[C@H](O)[C@H](NC)[C@H]2O[C@@]3(O)C(=O)C[C@@H](C)O[C@H]3O[C@@H]2[C@H]1O` [spectinomycin hydrochloride], the “motility inhibition on day 3” value was less than 0%.
On to `CCCCCCOC(=O)NC(=N)c1ccc(NCc2nc3cc(C(=O)N(CCC(=O)OCC)c4ccccn4)ccc3n2C)cc1` [dabigatran etexilate mesylate], for which the “motility inhibition on day 3” value was 25.7%.
